Laboratory results from patent US7368107B2, “Tumor antigen peptides derived from cyclophilin B” (Dainippon Sumitomo Pharma Co., Ltd., priority 1998, dated 2008).
Not every detail of the peptide structures is certain; ends, links or a residue may be inferred. Some entries repeat one wording, which the source may state once for all of them. Where no end group is shown, it is not given here.

Experiments:
KOPT-K1 = test: Induction of CTL from peripheral blood lymphocytes by cyclophilin-derived peptides, 51Cr cytotoxic activity; assay type: cell-based, human; settings: HLA-A24-positive KOPT-K1
Text: (§1) Lymphocytes were separated from peripheral blood of a healthy donor who was homozygous for A24 in the HLA-A locus using Ficoll method. […] The lymphocytes were harvested one week after the third stimulation, and measured for their cytotoxic activity using ^51Cr-labeled, HLA-A24-positive, T cell lymphoma-derived cell line KOPT-K1 and HLA-A24-negative, T cell leukemia-derived cell line RPMI8402 as target cells, according to the method described in D. D. Kharkevitch et al., Int.

RPMI8402 = test: as above; assay type: cell-based, human; settings: HLA-A24-negative RPMI8402
Text: as §1

In the case of “GFMCQGGDF [Cyp-A“59-67”, Gly-Phe-Met-Cys-Gln-Gly-Gly-Asp-Phe]”, the “Reaction of peptide-stimulated lymphocytes to target cells, in words” value (KOPT-K1) is reported as “reacted to HLA-A24-positive KOPT-K1” and the “Reaction of peptide-stimulated lymphocytes to target cells, in words” value (RPMI8402) is reported as “not to HLA-A24-negative RPM18402”.
